According to US20180369425A1, “LINKED AND OTHER pH-TRIGGERED COMPOUNDS” (priority 2017, published 2018):
Entries after “also recorded” stand apart in the source; their conditions may differ. At least one compound was matched to its structure with a doubt left. Residues, ends and D or L forms follow the SMILES beside them. *: point of attachment. X1 = CC1(C)C(/C=C/C=C/C=C/C=C2/N(CCCCCC(=O)NCCN3C(=O)CC(*)C3=O)c3ccc4ccccc4c3C2(C)C)=[N+](CCCCS(=O)(=O)[O-])c2ccc3ccccc3c21

System: HeLa, M4A4, A549, UM-UC3, 4T1 and MDA-MB-231 tumors
Test: Targeting tumors in different mouse tumor models (NIRF imaging, H&E)
Format: in vivo
Settings: 24 hours after 2.5 nmol (0.5 mg/kg) tail vein

With `CC(C)C[C@H](NC(=O)[C@H](Cc1ccc(O)cc1)NC(=O)[C@H](C)NC(=O)[C@H](CCCNC(=N)N)NC(=O)[C@H](Cc1c[nH]c2ccccc12)NC(=O)[C@@H]1CCCN1C(=O)[C@H](CC(N)=O)NC(=O)[C@H](CCC(N)=O)NC(=O)[C@H](CC(=O)O)NC(=O)[C@H](CC(=O)O)NC(=O)[C@H](CSC1CC(=O)N(CCNC(=O)CCCCCN2/C(=C/C=C/C=C/C=C/C3=[N+](CCCCS(=O)(=O)[O-])c4ccc5ccccc5c4C3(C)C)C(C)(C)c3c2ccc2ccccc32)C1=O)NC(=O)[C@H](C)N)C(=O)N[C@@H](CC(=O)O)C(=O)N[C@@H](CC(C)C)C(=O)N[C@@H](CC(C)C)C(=O)N[C@@H](Cc1ccccc1)C(=O)N1CCC[C@H]1C(=O)N[C@H](C(=O)N[C@@H](CC(=O)O)C(=O)N[C@H](C(=O)N[C@@H](CC(C)C)C(=O)N[C@@H](CC(C)C)C(=O)N[C@@H](CC(C)C)C(=O)N[C@@H](CC(=O)O)C(=O)N[C@@H](CC(C)C)C(=O)N[C@@H](CC(C)C)C(=O)N[C@@H](Cc1c[nH]c2ccccc12)C(=O)N[C@@H](C)C(=O)O)[C@@H](C)O)[C@@H](C)O` (stereo partly shown) [ICG-pHLIP] (H-AC(X1)DDQNPWRAYLDLLFPTDTLLLDLLWA-OH) the “tumor targeting / tumor contrast by NIRF imaging” value was “Both small and big tumors are targeted with high precision; also recorded: Excellent tumor to muscle contrast”.
